# In patent US8173697B2, “Alkoxyalkyl-substituted cyclic keto-enols” (Bayer CropScience AG, priority 2006, dated 2012):
# Some of these results come from one statement about several compounds together.
# Columns and labels:
# [1] = tested on: Myzus persicae; test: Myzus test (MYZUPE spray treatment); assay type: in vivo; details: 500 g/ha, sprayed leaf discs of Chinese cabbage
# [2] = tested on: Spodoptera frugiperda; test: Spodoptera frugiperda test (SPODFR spray treatment); assay type: in vivo; details: 500 g/ha, sprayed leaf discs of maize
# [3] = tested on: Tetranychus urticae; test: Tetranychus test, OP-resistant (TETRUR spray treatment); assay type: in vivo; details: 100 g/ha, bean plants
# [4] = tested on: Phaedon cochleariae; test: Phaedon test (PHAECO spray treatment); details: 500 g/ha, sprayed leaf discs of Chinese cabbage
compound,measurement,setting,value
Cc1ccc(-c2ccc(Cl)cc2)c(C)c1C1=C(OC(=O)C(C)C)C(C)(C2CCCO2)NC1=O (mixture of isomers) [I-b-15],"activity (effect in %, aphids killed)",[1],≥ 80%
same,"activity (effect in %, caterpillars killed)",[2],≥ 80%
Cc1ccc(-c2ccc(F)cc2)cc1C1=C(OC(=O)C(C)C)C(C)(C2CCCO2)NC1=O (mixture of isomers) [I-b-16],"activity (effect in %, aphids killed)",[1],≥ 80%
same,"activity (effect in %, spider mites killed)",[3],≥ 80%
same,"activity (effect in %, caterpillars killed)",[2],≥ 80%
CC(C)C(=O)OC1=C(c2cc(-c3ccc(Cl)cc3)ccc2Cl)C(=O)NC1(C)C1CCCO1 (mixture of isomers) [I-b-17],"activity (effect in %, aphids killed)",[1],≥ 80%
same,"activity (effect in %, spider mites killed)",[3],≥ 80%
same,"activity (effect in %, caterpillars killed)",[2],≥ 80%
COCC1(C)NC(=O)C(c2cc(-c3ccc(C)cc3)ccc2C)=C1O (stereo not drawn) [I-a-9],"activity (effect in %, aphids killed)",[1],≥ 80%
same,"activity (effect in %, caterpillars killed)",[2],≥ 80%
same,"activity (effect in %, beetle larvae killed)",[4],≥ 80%
COCC1(C)NC(=O)C(c2c(C)ccc(-c3ccc(Cl)c(Cl)c3)c2C)=C1O (stereo not drawn) [I-a-10],"activity (effect in %, aphids killed)",[1],≥ 80%
same,"activity (effect in %, caterpillars killed)",[2],≥ 80%
same,"activity (effect in %, beetle larvae killed)",[4],≥ 80%
COCC1(C)NC(=O)C(c2cc(-c3ccc(F)cc3)ccc2C)=C1O (stereo not drawn) [I-a-12],"activity (effect in %, aphids killed)",[1],≥ 80%
same,"activity (effect in %, caterpillars killed)",[2],≥ 80%
same,"activity (effect in %, beetle larvae killed)",[4],≥ 80%
CCc1ccc(-c2ccc(C)c(C3=C(O)C(C)(COC)NC3=O)c2)cc1 (stereo not drawn) [I-a-13],"activity (effect in %, beetle larvae killed)",[4],≥ 80%
COCC1(C)NC(=O)C(c2cc(-c3ccc(F)cc3)ccc2Cl)=C1O (stereo not drawn) [I-a-20],"activity (effect in %, aphids killed)",[1],≥ 80%
same,"activity (effect in %, caterpillars killed)",[2],≥ 80%
same,"activity (effect in %, beetle larvae killed)",[4],≥ 80%
COCCC1(C)NC(=O)C(c2cc(-c3ccc(F)cc3)ccc2Cl)=C1O (stereo not drawn) [I-a-26],"activity (effect in %, aphids killed)",[1],≥ 80%
same,"activity (effect in %, caterpillars killed)",[2],≥ 80%
same,"activity (effect in %, beetle larvae killed)",[4],≥ 80%
COCC1(C)NC(=O)C(c2cc(-c3ccc(Cl)c(F)c3)ccc2C)=C1OC(=O)C(C)C (stereo not drawn) [I-b-10],"activity (effect in %, aphids killed)",[1],≥ 80%
same,"activity (effect in %, spider mites killed)",[3],≥ 80%
same,"activity (effect in %, caterpillars killed)",[2],≥ 80%
COCC1(C)NC(=O)C(c2cc(-c3ccc(F)cc3)ccc2Cl)=C1OC(=O)C(C)C (stereo not drawn) [I-b-12],"activity (effect in %, aphids killed)",[1],≥ 80%
same,"activity (effect in %, caterpillars killed)",[2],≥ 80%
same,"activity (effect in %, beetle larvae killed)",[4],≥ 80%
COCC1(C)NC(=O)C(c2cc(-c3ccc(Cl)cc3)ccc2C)=C1OC(=O)C(C)C (stereo not drawn) [I-b-13],"activity (effect in %, aphids killed)",[1],≥ 80%
same,"activity (effect in %, caterpillars killed)",[2],≥ 80%
same,"activity (effect in %, beetle larvae killed)",[4],≥ 80%
COCC1(C)NC(=O)C(c2c(C)ccc(-c3ccc(F)cc3)c2C)=C1OC(=O)C(C)C (stereo not drawn) [I-b-14],"activity (effect in %, aphids killed)",[1],≥ 80%
same,"activity (effect in %, caterpillars killed)",[2],≥ 80%
same,"activity (effect in %, beetle larvae killed)",[4],≥ 80%
CCOC(=O)OC1=C(c2c(C)cc(-c3ccc(Cl)cc3)cc2CC)C(=O)NC1(C)COC (stereo not drawn) [I-c-1],"activity (effect in %, spider mites killed)",[3],≥ 80%
same,"activity (effect in %, caterpillars killed)",[2],≥ 80%
COCC1(C)NC(=O)C(c2cc(-c3ccc(F)cc3)ccc2C)=C1OC(=O)OC (stereo not drawn) [I-c-8],"activity (effect in %, aphids killed)",[1],≥ 80%
same,"activity (effect in %, spider mites killed)",[3],≥ 80%
same,"activity (effect in %, beetle larvae killed)",[4],≥ 80%
CCOC(=O)OC1=C(c2cc(-c3ccc(F)cc3)ccc2Cl)C(=O)NC1(C)COC (stereo not drawn) [I-c-10],"activity (effect in %, aphids killed)",[1],≥ 80%
same,"activity (effect in %, caterpillars killed)",[2],≥ 80%
same,"activity (effect in %, beetle larvae killed)",[4],≥ 80%
CCOC(=O)OC1=C(c2cc(-c3ccc(Cl)cc3)ccc2C)C(=O)NC1(C)CCOC (stereo not drawn) [I-c-17],"activity (effect in %, aphids killed)",[1],≥ 80%
same,"activity (effect in %, spider mites killed)",[3],≥ 80%
same,"activity (effect in %, caterpillars killed)",[2],≥ 80%
COCCC1(C)NC(=O)C(c2cc(-c3ccc(F)cc3)ccc2C)=C1OC(=O)OC (stereo not drawn) [I-c-18],"activity (effect in %, aphids killed)",[1],≥ 80%
same,"activity (effect in %, spider mites killed)",[3],≥ 80%
COCCC1(C)NC(=O)C(c2c(C)ccc(-c3ccc(F)cc3)c2C)=C1OC(=O)OC (stereo not drawn) [I-c-19],"activity (effect in %, aphids killed)",[1],≥ 80%
same,"activity (effect in %, spider mites killed)",[3],≥ 80%
